From doi:10.1101/2021.12.08.471875
These are yes or no findings as the source states them, for the method shown. Binding seen in cells or lysates may run through a third protein. A yes stands for co-enrichment or nearness to the bait. Other partners may have been found.

Sequences of proteins named here, by UniProt entry; tags and fusion partners are left off.
UniProt P0ACB0: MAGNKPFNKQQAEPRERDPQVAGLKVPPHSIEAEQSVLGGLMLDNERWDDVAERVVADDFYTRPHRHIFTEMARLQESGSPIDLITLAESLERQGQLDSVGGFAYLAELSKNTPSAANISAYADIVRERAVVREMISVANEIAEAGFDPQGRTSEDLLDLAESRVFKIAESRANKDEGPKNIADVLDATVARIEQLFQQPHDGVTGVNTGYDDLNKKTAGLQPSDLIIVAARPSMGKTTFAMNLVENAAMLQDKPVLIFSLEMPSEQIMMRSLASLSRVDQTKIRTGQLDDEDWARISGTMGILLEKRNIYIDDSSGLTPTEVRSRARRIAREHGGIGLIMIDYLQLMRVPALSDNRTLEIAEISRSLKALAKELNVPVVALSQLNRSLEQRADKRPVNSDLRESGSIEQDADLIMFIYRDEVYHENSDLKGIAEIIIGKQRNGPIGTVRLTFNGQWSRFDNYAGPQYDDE

T1: SeqA (E. coli) (UniProt P0AFY8)
T1 sequence: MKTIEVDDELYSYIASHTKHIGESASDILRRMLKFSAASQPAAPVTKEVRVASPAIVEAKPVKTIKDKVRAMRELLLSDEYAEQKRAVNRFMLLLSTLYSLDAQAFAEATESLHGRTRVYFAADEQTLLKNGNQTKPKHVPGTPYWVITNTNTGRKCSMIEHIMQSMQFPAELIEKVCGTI


Columns and labels:
DnaB (E. coli) = DnaB (E. coli) (UniProt P0ACB0); test: affinity purification with mass spectrometry
SeqA (E. coli) = target: T1, SeqA (E. coli); test: affinity purification with mass spectrometry

binding (DnaB (E. coli)) | binding (SeqA (E. coli)) | Binder
binds | binds | polyphosphate kinase (Ppk) (enzyme, UniProt P0A7B1 1-688) MGQEKLYIEKELSWLSFNERVLQEAADKSNPLIERMRFLGIYSNNLDEFYKVRFAELKRRIIISEEQGSNSHSRHLLGKIQSRVLKADQEFDGLYNELLLEMARNQIFLINERQLSVNQQNWLRHYFKQYLRQHITPILINPDTDLVQFLKDDYTYLAVEIIRGDTIRYALLEIPSDKVPRFVNLPPEAPRRRKPMILLDNILRYCLDDIFKGFFDYDALNAYSMKMTRDAEYDLVHEMEASLMELMSSSLKQRLTAEPVRFVYQRDMPNALVEVLREKLTISRYDSIVPGGRYHNFKDFINFPNVGKANLVNKPLPRLRHIWFDKAQFRNGFDAIRERDVLLYYPYHTFEHVLELLRQASFDPSVLAIKINIYRVAKDSRIIDSMIHAAHNGKKVTVVVELQARFDEEANIHWAKRLTEAGVHVIFSAPGLKIHAKLFLISRKENGEVVRYAHIGTGNFNEKTARLYTDYSLLTADARITNEVRRVFNFIENPYRPVTFDYLMVSPQNSRRLLYEMVDREIANAQQGLPSGITLKLNNLVDKGLVDRLYAASSSGVPVNLLVRGMCSLIPNLEGISDNIRAISIVDRYLEHDRVYIFENGGDKKVYLSSADWMTRNIDYRIEVATPLLDPRLKQRVLDIIDILFSDTVKARYIDKELSNRYVPRGNRRKVRAQLAIYDYIKSLEQPE
binds |  | DnaC (protein, UniProt P0AEF0 1-245) MKNVGDLMQRLQKMMPAHIKPAFKTGEELLAWQKEQGAIRSAALERENRAMKMQRTFNRSGIRPLHQNCSFENYRVECEGQMNALSKARQYVEEFDGNIASFIFSGKPGTGKNHLAAAICNELLLRGKSVLIITVADIMSAMKDTFRNSGTSEEQLLNDLSNVDLLVIDEIGVQTESKYEKVIINQIVDRRSSSKRPTGMLTNSNMEEMTKLLGERVMDRMRLGNSLWVIFNWDSYRSRVTGKEY
binds |  | RhlB (enzyme, UniProt P0A8J8 1-421) MSKTHLTEQKFSDFALHPKVVEALEKKGFHNCTPIQALALPLTLAGRDVAGQAQTGTGKTMAFLTSTFHYLLSHPAIADRKVNQPRALIMAPTRELAVQIHADAEPLAEATGLKLGLAYGGDGYDKQLKVLESGVDILIGTTGRLIDYAKQNHINLGAIQVVVLDEADRMYDLGFIKDIRWLFRRMPPANQRLNMLFSATLSYRVRELAFEQMNNAEYIEVEPEQKTGHRIKEELFYPSNEEKMRLLQTLIEEEWPDRAIIFANTKHRCEEIWGHLAADGHRVGLLTGDVAQKKRLRILDEFTRGDLDILVATDVAARGLHIPAVTHVFNYDLPDDCEDYVHRIGRTGRAGASGHSISLACEEYALNLPAIETYIGHSIPVSKYNPDALMTDLPKPLRLTRPRTGNGPRRTGAPRNRRRSG
